Laboratory results: publication doi:10.1101/2025.05.11.653314
No constants are given. Whether binding was seen depends on the method and setting.

Experiments:
[1] = target: U. parvum ScpB (Ureaplasma parvum) (UniProt Q9PQE5); test: cross-linking
[2] = target: T1, U. parvum ScpA (Ureaplasma parvum) (UniProt Q9PQE6); test: cross-linking
T1 sequence: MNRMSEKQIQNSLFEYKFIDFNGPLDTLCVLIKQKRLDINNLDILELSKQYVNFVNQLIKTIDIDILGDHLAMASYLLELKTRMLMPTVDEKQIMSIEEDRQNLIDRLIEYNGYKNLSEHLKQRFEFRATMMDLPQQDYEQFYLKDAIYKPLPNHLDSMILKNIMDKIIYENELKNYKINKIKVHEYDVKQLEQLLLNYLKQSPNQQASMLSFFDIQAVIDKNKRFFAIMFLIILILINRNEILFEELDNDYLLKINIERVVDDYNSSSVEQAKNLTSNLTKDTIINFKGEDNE

B1: U. parvum ScpB (protein, UniProt Q9PQE5 1-364)
chain: MNNDKKNKKNLLNNELDLAKYTLHNLSADNNDDENELELDWDGIDDEIIDNNQQIYQKKHINHKTRLFIEKDDKLNNHEQIESGNEIINQPKALSGQDFLEFVNSKLVQKNNNFKQNSKFLQNQLTNHELLREKLKPQEDFNKIFKTKDINVTEEIKIKDVKKNSSVSFRNSFNINDLNQNQITNIKSIIDSTLFLAGEEGVSLQDLKRTTGLNESSQLKTILNQLQKDYDVDDSGLVLVQFGEKFKLLTQSKNKDALSKFVTTSFRTPLSQRNLETLAIIAYNQPTTRAKIQAIRDRDPKPAIDALLKLNLIIEAGRQDTPGHPILYTVSQKFYDLFGIRNLTELPRLNKEINEFSPIDESTN
B1 was tested, and the binding [1] was “no binding” and the binding [2] was “no binding”.
